Data published in article PMC4811540.
Results are given in words; binding and its absence hold for the method and conditions named. Binding seen in cells or lysates may run through a third protein. Binding calls can cover weak binding; strength is not graded here. Sequences can lack the tags named with a protein.

Key:
Assay in all cases: co-IP; HEK293 cells transfected with full length HA-FN or HA-FN-truncated constructs D1-5 along with Flag-TAK1, Flag-TAB1, Myc-TAB2 or Myc-TAB3; 48 h post-transfection
[1] = target: T1, TAK1-binding protein 1 (TAB1), Flag-tagged (UniProt Q15750)
T1 sequence: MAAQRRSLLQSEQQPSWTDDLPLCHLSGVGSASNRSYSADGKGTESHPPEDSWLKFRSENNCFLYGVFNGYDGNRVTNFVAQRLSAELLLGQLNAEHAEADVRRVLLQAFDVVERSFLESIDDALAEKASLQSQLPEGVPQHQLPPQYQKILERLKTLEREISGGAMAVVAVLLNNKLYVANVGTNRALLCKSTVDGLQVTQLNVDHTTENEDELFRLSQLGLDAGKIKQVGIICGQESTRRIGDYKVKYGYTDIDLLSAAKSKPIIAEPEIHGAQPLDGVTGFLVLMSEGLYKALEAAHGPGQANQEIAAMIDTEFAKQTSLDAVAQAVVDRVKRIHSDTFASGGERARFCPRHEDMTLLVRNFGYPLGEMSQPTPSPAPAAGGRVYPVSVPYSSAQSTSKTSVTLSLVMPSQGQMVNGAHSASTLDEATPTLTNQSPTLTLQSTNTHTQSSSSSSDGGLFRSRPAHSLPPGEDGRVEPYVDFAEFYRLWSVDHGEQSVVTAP

[2] = target: T2, TAK1-binding protein 2 (TAB2), Myc-tagged (UniProt Q9NYJ8)
T2 sequence: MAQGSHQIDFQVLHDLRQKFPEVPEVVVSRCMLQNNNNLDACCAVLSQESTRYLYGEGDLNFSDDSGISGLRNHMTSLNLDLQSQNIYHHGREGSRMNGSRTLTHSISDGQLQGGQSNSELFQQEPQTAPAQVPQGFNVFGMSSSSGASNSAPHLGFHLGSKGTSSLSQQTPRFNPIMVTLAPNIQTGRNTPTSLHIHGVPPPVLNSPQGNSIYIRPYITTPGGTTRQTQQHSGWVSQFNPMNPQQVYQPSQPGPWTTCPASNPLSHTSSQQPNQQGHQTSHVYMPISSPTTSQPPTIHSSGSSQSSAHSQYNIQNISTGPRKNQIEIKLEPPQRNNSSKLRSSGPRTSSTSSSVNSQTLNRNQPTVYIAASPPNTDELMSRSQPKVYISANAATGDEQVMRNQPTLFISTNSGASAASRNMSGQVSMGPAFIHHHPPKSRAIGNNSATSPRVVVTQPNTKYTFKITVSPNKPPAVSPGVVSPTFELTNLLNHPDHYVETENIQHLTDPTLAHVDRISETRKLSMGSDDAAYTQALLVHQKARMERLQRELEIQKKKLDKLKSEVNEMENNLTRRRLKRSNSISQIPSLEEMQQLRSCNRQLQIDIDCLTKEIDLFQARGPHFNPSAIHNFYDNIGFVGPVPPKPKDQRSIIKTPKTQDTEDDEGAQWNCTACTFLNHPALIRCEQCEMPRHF

[3] = target: T3, TAK1-binding protein 3 (TAB3), Myc-tagged (UniProt Q8N5C8)
T3 sequence: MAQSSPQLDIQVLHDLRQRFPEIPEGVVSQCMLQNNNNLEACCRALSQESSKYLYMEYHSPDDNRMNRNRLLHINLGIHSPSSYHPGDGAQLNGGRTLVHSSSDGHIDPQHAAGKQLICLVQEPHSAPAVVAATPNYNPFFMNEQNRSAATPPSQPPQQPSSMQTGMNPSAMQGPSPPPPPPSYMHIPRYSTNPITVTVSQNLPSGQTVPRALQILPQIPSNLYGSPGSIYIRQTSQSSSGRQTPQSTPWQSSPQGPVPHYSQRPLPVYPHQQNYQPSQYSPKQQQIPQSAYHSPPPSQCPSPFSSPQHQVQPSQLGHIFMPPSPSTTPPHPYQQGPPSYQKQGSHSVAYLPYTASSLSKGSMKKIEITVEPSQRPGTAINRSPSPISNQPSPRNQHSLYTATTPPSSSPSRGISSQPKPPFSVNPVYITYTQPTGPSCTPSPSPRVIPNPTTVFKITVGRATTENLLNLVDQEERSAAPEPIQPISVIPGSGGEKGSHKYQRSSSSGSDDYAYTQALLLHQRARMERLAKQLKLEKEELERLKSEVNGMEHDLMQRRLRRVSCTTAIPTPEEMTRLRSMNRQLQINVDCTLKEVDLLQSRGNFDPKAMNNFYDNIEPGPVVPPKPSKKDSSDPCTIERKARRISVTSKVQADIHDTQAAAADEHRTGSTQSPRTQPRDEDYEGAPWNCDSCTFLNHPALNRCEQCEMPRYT

[4] = target: T4, Transforming growth factor β-activated protein kinase 1 (TAK1), Flag-tagged (UniProt O43318)
T4 sequence: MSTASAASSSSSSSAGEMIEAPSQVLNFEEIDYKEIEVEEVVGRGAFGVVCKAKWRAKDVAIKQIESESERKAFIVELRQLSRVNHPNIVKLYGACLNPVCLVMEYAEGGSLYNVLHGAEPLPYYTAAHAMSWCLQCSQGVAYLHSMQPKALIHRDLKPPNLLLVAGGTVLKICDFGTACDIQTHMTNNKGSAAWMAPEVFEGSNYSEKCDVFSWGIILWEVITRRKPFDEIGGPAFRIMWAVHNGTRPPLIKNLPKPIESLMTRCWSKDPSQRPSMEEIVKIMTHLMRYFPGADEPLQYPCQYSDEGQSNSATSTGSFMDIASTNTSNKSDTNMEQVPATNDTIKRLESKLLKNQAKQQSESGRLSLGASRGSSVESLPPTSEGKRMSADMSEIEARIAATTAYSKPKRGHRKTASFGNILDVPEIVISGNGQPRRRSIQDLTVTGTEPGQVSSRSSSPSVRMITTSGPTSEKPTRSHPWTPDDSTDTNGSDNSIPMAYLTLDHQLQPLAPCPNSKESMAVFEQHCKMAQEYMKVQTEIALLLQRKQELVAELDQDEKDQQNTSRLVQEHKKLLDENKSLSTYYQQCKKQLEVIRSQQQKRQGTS

binding [1]	binding [2]	binding [3]	binding [4]	Substance
binds	binds	binds	binds	HA-FN truncated segment D5 (C-terminal domain) (domain or fragment)
binds	binds	binds	binds	Full length HA-FN (fibronectin in PKH3-3XHA)
